According to article PMC9463353:
Results are given in words; binding and its absence hold for the method and conditions named. Binding seen in cells or lysates may run through a third protein. Some entries that bind do so weakly or less than the wild type.

Protein sequences, listed by entry. Tags and fused reporters are not part of them. Residues count along the entry.
UniProt P14416: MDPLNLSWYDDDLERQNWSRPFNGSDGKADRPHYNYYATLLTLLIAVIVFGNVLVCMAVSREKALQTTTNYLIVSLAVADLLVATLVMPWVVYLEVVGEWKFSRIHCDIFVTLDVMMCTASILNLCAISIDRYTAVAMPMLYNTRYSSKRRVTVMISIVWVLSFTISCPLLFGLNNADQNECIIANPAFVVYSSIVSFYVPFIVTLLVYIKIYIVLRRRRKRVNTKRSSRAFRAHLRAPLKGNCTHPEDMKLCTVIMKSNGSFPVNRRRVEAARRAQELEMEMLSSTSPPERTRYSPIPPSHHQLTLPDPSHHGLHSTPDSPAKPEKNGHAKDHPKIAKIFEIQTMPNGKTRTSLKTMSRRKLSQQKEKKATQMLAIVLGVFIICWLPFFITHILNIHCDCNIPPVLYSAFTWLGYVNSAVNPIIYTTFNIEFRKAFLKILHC
UniProt P31424, residues 21-1203: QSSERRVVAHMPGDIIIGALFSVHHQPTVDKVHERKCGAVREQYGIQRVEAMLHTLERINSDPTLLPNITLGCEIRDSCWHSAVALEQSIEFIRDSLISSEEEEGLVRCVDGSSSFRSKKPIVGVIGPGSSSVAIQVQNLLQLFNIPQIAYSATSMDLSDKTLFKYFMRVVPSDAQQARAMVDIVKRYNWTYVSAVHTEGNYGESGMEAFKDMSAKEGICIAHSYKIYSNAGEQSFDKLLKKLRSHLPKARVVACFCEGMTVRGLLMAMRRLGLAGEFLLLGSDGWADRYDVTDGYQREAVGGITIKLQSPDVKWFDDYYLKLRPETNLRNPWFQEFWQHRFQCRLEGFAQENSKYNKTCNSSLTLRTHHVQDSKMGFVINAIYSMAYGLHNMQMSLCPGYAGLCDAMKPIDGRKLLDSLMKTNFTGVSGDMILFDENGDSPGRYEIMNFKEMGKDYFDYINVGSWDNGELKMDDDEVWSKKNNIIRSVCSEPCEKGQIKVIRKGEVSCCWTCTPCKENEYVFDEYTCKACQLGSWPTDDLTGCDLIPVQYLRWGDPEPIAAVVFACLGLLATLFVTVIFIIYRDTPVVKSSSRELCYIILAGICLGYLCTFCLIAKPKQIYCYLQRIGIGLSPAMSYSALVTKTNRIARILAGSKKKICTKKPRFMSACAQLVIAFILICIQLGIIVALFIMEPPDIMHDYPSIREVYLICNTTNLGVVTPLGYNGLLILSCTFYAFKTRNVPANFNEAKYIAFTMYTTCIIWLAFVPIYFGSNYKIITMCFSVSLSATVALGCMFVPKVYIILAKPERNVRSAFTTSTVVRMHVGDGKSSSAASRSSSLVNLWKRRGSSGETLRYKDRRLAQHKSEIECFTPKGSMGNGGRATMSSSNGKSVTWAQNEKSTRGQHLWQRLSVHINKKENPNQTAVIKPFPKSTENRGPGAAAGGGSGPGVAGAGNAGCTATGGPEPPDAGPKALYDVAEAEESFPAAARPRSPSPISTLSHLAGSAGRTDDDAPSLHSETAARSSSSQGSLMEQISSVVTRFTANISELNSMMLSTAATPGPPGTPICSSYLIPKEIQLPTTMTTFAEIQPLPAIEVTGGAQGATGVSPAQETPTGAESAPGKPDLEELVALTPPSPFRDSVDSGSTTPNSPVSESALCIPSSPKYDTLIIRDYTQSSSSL

Assays:
[1] = target: dopamine D2 receptor expressed in HEK293T cells for in situ PLA, radioligand and cAMP experiments (UniProt P14416); experiment: proximity ligation; in situ PLA (Duolink) in transiently co-transfected HEK293T cells; mouse anti-D2R (MABN53) and rabbit anti-mGluR5 (AB5675); without transient co-expression of A2AR
[2] = target: dopamine D2 receptor expressed in HEK293T cells for in situ PLA, radioligand and cAMP experiments (UniProt P14416); experiment: proximity ligation; in situ PLA (Duolink) in transiently co-transfected HEK293T cells; mouse anti-D2R (MABN53) and rabbit anti-mGluR5 (AB5675); with transient co-expression of A2AR

binding [1]: binds weakly
binding [2]: binds
Substance: metabotropic glutamate receptor type 5 expressed in HEK293T cells for in situ PLA, radioligand and cAMP experiments (from UniProt P31424 21-1203)
